Experimental data taken from patent US6555698B1, “Chemiluminescent substrates for neuraminidase, assays for detection of neuraminidase and kits therefor” (Tropix, Inc., priority 1998, dated 2003).

Experiment: Background noise of dioxetane stock in buffer, no enzyme (Experiments 1, 4, 5)
[1] = pH 10 AMP buffer, 31.5° C., no enzyme

Q: With `COC1(c2ccc(Cl)c(O[C@]3(C(=O)[O-])C[C@H](O)[C@@H](NC(C)=O)[C@H]([C@H](O)[C@H](O)CO)O3)c2)OOC12C1CC3CC2CC(Cl)(C3)C1.[Na+]` (some centres unmarked) [dioxetane 489-102] as the compound, how does the noise (5 microliters dioxetane stock in 250 microliters glaxo pH 5.5 buffer, no enzyme) read?
A: approximately 0.2 RLU

Q: What about the “noise level relative to pH 5.5 (no enzyme)” value (pH 7.7) of the same compound?
A: 10 times

Q: And the “noise after 20 minutes” value [1]?
A: approximately 1.3 RLU

Q: What about the “noise, maximum value” [1] of the same compound?
A: about 2.3 RLU

Q: And the steady noise level (sodium phosphate buffer pH 7.7, 31.5° C., no enzyme)?
A: about 2 RLU
